The other results are listed elsewhere or left out.
Legend:
Assay in all cases: glycan array binding signal (z-score within array); higher = stronger binding
Conditions in all cases: glycan notation: IUPAC condensed, linker removed
[1] = molecular target: Fuc(a1-2)Gal
In short: (§1)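 The Consortium for Functional Glycomics database supplied 3228 glycan arrays, of which those lacking an available protein sequence were dropped. The binding signal, a within-array Z-score, was averaged across arrays of the same protein sequence and across linkers. Negative scores can be read as non-binding.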

[2] = molecular target: Fuc(a1-2)Gal(b1-3)GalNAc
In short: as §1

[3] = molecular target: Fuc(a1-2)Gal(b1-3)GalNAc(a1-3)[Fuc(a1-2)]Gal(b1-4)Glc
In short: as §1

[4] = molecular target: Fuc(a1-2)Gal(b1-3)GalNAc(a1-3)[Fuc(a1-2)]Gal(b1-4)GlcNAc
In short: as §1

[5] = molecular target: Fuc(a1-2)Gal(b1-3)GalNAc(b1-3)Gal
In short: as §1

[6] = molecular target: Fuc(a1-2)Gal(b1-3)GalNAc(b1-3)Gal(a1-4)Gal(b1-4)Glc
In short: as §1

[7] = molecular target: Fuc(a1-2)Gal(b1-3)GalNAc(b1-4)[Neu5Ac(a2-3)]Gal(b1-4)Glc
In short: as §1

[8] = molecular target: Fuc(a1-2)Gal(b1-3)GlcNAc
In short: as §1

[9] = molecular target: Fuc(a1-2)Gal(b1-3)GlcNAc(b1-2)Man(a1-3)[Fuc(a1-2)Gal(b1-3)GlcNAc(b1-2)Man(a1-6)]Man(b1-4)GlcNAc(b1-4)GlcNAc
In short: as §1

[10] = molecular target: Fuc(a1-2)Gal(b1-3)GlcNAc(b1-2)Man(a1-3)[Fuc(a1-2)Gal(b1-3)GlcNAc(b1-2)Man(a1-6)]Man(b1-4)GlcNAc(b1-4)[Fuc(a1-6)]GlcNAc
In short: as §1

[11] = molecular target: Fuc(a1-2)Gal(b1-3)GlcNAc(b1-3)Gal(b1-4)Glc
In short: as §1

[12] = molecular target: Fuc(a1-2)Gal(b1-3)GlcNAc(b1-3)GalNAc
In short: as §1

[13] = molecular target: Fuc(a1-2)Gal(b1-3)GlcNAc(b1-3)[Fuc(a1-2)Gal(b1-3)GlcNAc(b1-6)]GalNAc
In short: as §1

[14] = molecular target: Fuc(a1-2)Gal(b1-3)GlcNAc(b1-3)[Gal(b1-4)GlcNAc(b1-6)]Gal(b1-4)Glc
In short: as §1

[15] = molecular target: Fuc(a1-2)Gal(b1-3)GlcNAc(b1-3)[Neu5Ac(a2-6)Gal(b1-4)GlcNAc(b1-6)]Gal(b1-4)Glc
In short: as §1

[16] = molecular target: Fuc(a1-2)Gal(b1-3)GlcNAc6S
In short: as §1

[17] = molecular target: Fuc(a1-2)Gal(b1-3)[Fuc(a1-4)]GlcNAc
In short: as §1

[18] = molecular target: Fuc(a1-2)Gal(b1-3)[Fuc(a1-4)]GlcNAc(b1-2)Man(a1-3)[Fuc(a1-2)Gal(b1-3)[Fuc(a1-4)]GlcNAc(b1-2)Man(a1-3)]Man(b1-4)GlcNAc(b1-4)GlcNAc
In short: as §1

[19] = molecular target: Fuc(a1-2)Gal(b1-3)[Fuc(a1-4)]GlcNAc(b1-2)Man(a1-3)[Fuc(a1-2)Gal(b1-3)[Fuc(a1-4)]GlcNAc(b1-2)Man(a1-6)]Man(b1-4)GlcNAc(b1-4)[Fuc(a1-6)]GlcNAc(b1-4)[Fuc(a1-6)]GlcNAc
In short: as §1

[20] = molecular target: Fuc(a1-2)Gal(b1-3)[Fuc(a1-4)]GlcNAc(b1-3)[Fuc(a1-3)[Gal(b1-4)]GlcNAc(b1-6)]Gal(b1-4)Glc
In short: as §1

[21] = molecular target: Fuc(a1-2)Gal(b1-3)[Fuc(a1-4)]GlcNAc(b1-3)[Gal(b1-4)GlcNAc(b1-6)]Gal(b1-4)Glc
In short: as §1

[22] = molecular target: Fuc(a1-2)Gal(b1-4)Glc
In short: as §1

[23] = molecular target: Fuc(a1-2)Gal(b1-4)Glc6S
In short: as §1

[24] = molecular target: Fuc(a1-2)Gal(b1-4)GlcNAc
In short: as §1

[25] = molecular target: Fuc(a1-2)Gal(b1-4)GlcNAc(b1-2)Man
In short: as §1

[26] = molecular target: Fuc(a1-2)Gal(b1-4)GlcNAc(b1-2)Man(a1-3)[Fuc(a1-2)Gal(b1-4)GlcNAc(b1-2)Man(a1-6)]Man(b1-4)GlcNAc(b1-4)GlcNAc
In short: as §1

[27] = molecular target: Fuc(a1-2)Gal(b1-4)GlcNAc(b1-2)Man(a1-3)[Fuc(a1-2)Gal(b1-4)GlcNAc(b1-2)Man(a1-6)]Man(b1-4)GlcNAc(b1-4)[Fuc(a1-6)]GlcNAc
In short: as §1

[28] = molecular target: Fuc(a1-2)Gal(b1-4)GlcNAc(b1-2)[Fuc(a1-2)Gal(b1-4)GlcNAc(b1-4)]Man(a1-3)[Fuc(a1-2)Gal(b1-4)GlcNAc(b1-2)Man(a1-6)]Man(b1-4)GlcNAc(b1-4)GlcNAc
In short: as §1

[29] = molecular target: Fuc(a1-2)Gal(b1-4)GlcNAc(b1-3)Gal(b1-4)GlcNAc
In short: as §1

[30] = molecular target: Fuc(a1-2)Gal(b1-4)GlcNAc(b1-3)Gal(b1-4)GlcNAc(b1-2)Man(a1-3)[Fuc(a1-2)Gal(b1-4)GlcNAc(b1-3)Gal(b1-4)GlcNAc(b1-2)Man(a1-6)]Man(b1-4)GlcNAc(b1-4)GlcNAc
In short: as §1

[31] = molecular target: Fuc(a1-2)Gal(b1-4)GlcNAc(b1-3)Gal(b1-4)GlcNAc(b1-3)Gal(b1-4)GlcNAc
In short: as §1

[32] = molecular target: Fuc(a1-2)Gal(b1-4)GlcNAc(b1-3)GalNAc
In short: as §1

[33] = molecular target: Fuc(a1-2)Gal(b1-4)GlcNAc(b1-3)[Fuc(a1-2)Gal(b1-4)GlcNAc(b1-6)]GalNAc
In short: as §1

[34] = molecular target: Fuc(a1-2)Gal(b1-4)GlcNAc(b1-3)[Fuc(a1-3)[Gal(b1-4)]GlcNAc(b1-6)]Gal(b1-4)Glc
In short: as §1

[35] = molecular target: Fuc(a1-2)Gal(b1-4)GlcNAc(b1-6)GalNAc
In short: as §1

[36] = molecular target: Fuc(a1-2)Gal(b1-4)GlcNAc6S
In short: as §1

[37] = molecular target: Fuc(a1-2)Gal(b1-4)[Fuc(a1-3)]GlcNAc
In short: as §1

[38] = molecular target: Fuc(a1-2)Gal(b1-4)[Fuc(a1-3)]GlcNAc(b1-2)Man(a1-3)[Fuc(a1-2)Gal(b1-4)[Fuc(a1-3)]GlcNAc(b1-2)Man(a1-6)]Man(b1-4)GlcNAc(b1-4)[Fuc(a1-6)]GlcNAc
In short: as §1

[39] = molecular target: Fuc(a1-2)Gal(b1-4)[Fuc(a1-3)]GlcNAc(b1-2)[Fuc(a1-2)Gal(b1-4)[Fuc(a1-3)]GlcNAc(b1-4)]Man(a1-3)[Fuc(a1-2)Gal(b1-4)[Fuc(a1-3)]GlcNAc(b1-2)Man(a1-6)]Man(b1-4)GlcNAc(b1-4)GlcNAc
In short: as §1

[40] = molecular target: Fuc(a1-2)Gal(b1-4)[Fuc(a1-3)]GlcNAc(b1-3)Gal(b1-4)[Fuc(a1-3)]GlcNAc
In short: as §1

[41] = molecular target: Fuc(a1-2)Gal(b1-4)[Fuc(a1-3)]GlcNAc(b1-3)Gal(b1-4)[Fuc(a1-3)]GlcNAc(b1-3)Gal(b1-4)[Fuc(a1-3)]GlcNAc
In short: as §1

[42] = molecular target: Fuc(a1-2)Gal(b1-4)[Fuc(a1-3)]GlcNAc(b1-3)GalNAc
In short: as §1

[43] = molecular target: Fuc(a1-2)Gal(b1-4)[Fuc(a1-3)]GlcNAc(b1-3)[Neu5Ac(a2-6)Gal(b1-4)GlcNAc(b1-6)]Gal(b1-4)Glc
In short: as §1

[44] = molecular target: Fuc(a1-2)Gal3S(b1-4)GlcNAc
In short: as §1

[45] = molecular target: Fuc(a1-2)Gal6S(b1-3)GlcNAc
In short: as §1

B1: Aap lectin (Staphylococcus epidermidis) (protein)
chain: VNLNYSSPFMSLLSMPADSSSNNTKNTIDIPPTTVKGRDNYDFYGRVDIESNPTDLNATNLTRYNYGQPPGTTTAGAVQFKNQVSFDKDFDFNIRVANNRQSNTTGADGWGFMFSKKDGDDFLKNGGILREKGTPSAAGFRIDTGYYNNDPLDKIQKQAGQGYRGYGTFVKNDSQGNTSKVGSGTPSTDFLNYADNTTNDLDGKFHGQKLNNVNLKYNASNQTFTATYAGKTWTATLSELGLSPTDSYNFLVTSS
glycan array binding signal (z-score) [1]: 1.06 | glycan array binding signal (z-score) [2]: -0.871 | glycan array binding signal (z-score) [3]: -0.002 | glycan array binding signal (z-score) [4]: -0.431 | glycan array binding signal (z-score) [5]: -0.751 | glycan array binding signal (z-score) [6]: 0.358 | glycan array binding signal (z-score) [7]: -0.694 | glycan array binding signal (z-score) [8]: -0.737 | glycan array binding signal (z-score) [9]: 1.49 | glycan array binding signal (z-score) [10]: 2.87 | glycan array binding signal (z-score) [11]: -0.68 | glycan array binding signal (z-score) [12]: -0.829 | glycan array binding signal (z-score) [13]: 1.2 | glycan array binding signal (z-score) [14]: -0.875 | glycan array binding signal (z-score) [15]: 0.015 | glycan array binding signal (z-score) [16]: -0.08 | glycan array binding signal (z-score) [17]: -0.851 | glycan array binding signal (z-score) [18]: 1.16 | glycan array binding signal (z-score) [19]: -0.291 | glycan array binding signal (z-score) [20]: 1.1 | glycan array binding signal (z-score) [21]: 0.218 | glycan array binding signal (z-score) [22]: 2.43 | glycan array binding signal (z-score) [23]: 0.519 | glycan array binding signal (z-score) [24]: -0.831 | glycan array binding signal (z-score) [25]: -0.085 | glycan array binding signal (z-score) [26]: -0.352 | glycan array binding signal (z-score) [27]: -0.829 | glycan array binding signal (z-score) [28]: -0.732 | glycan array binding signal (z-score) [29]: -0.688 | glycan array binding signal (z-score) [30]: 0.261 | glycan array binding signal (z-score) [31]: -0.893 | glycan array binding signal (z-score) [32]: 1.36 | glycan array binding signal (z-score) [33]: 0.749 | glycan array binding signal (z-score) [34]: -0.878 | glycan array binding signal (z-score) [35]: 0.471 | glycan array binding signal (z-score) [36]: -0.682 | glycan array binding signal (z-score) [37]: -0.795 | glycan array binding signal (z-score) [38]: -0.688 | glycan array binding signal (z-score) [39]: -0.784 | glycan array binding signal (z-score) [40]: -0.404 | glycan array binding signal (z-score) [41]: -0.534 | glycan array binding signal (z-score) [42]: 0.934 | glycan array binding signal (z-score) [43]: -0.585 | glycan array binding signal (z-score) [44]: -0.887 | glycan array binding signal (z-score) [45]: 0.089
